According to the supplement of paper PMC10338343:
± gives the standard deviation. Only a part is listed here, and it is no random draw. Many of these values have a large error.

System: EfPiwi piRISC loaded with piRNA #1 (26 nt)
Assay: pre-steady-state target cleavage rate (min^-1); guide: piRNA #1 5'p-UGAGGUAGUAGGUUGUAUAGUAUCCA; MIWI and MILI are mouse PIWI proteins and EfPiwi is from a freshwater sponge; tags in brackets are library labels; higher = faster piRNA-guided slicing of the target
Conditions: auxiliary factor: 500 nM Ephydatia muelleri Gtsf1
Outline: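 For Cleave-'n-Seq, a transcribed, DNA-blocked target RNA library […] met 1 nM active affinity-purified piRISC with one synthetic guide at 33 °C for 0–8 or 0–960 min in HEPES–potassium acetate buffer, with or without 500 nM GTSF1 partner protein. Uncleaved targets were sequenced and normalised to depth and weakly complementary targets, with three trials pooled and k3 capped at 0.0001 min^-1. A burst-and-steady-state fit supplied the pre-steady-state cleavage rate.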

Row | Sequence | pre-steady-state target cleavage rate
1 | GGAGACCCUACUAUACAACCUACUACCUCA | 0.153 ± 0.051
2 | GGAGACCUAUCUAUAGUACCUACUACCUCA | 0.00138 ± 0.0051
3 | GGAGAGGAUACUAUACUACCUACUAGCUCA | 0.00173 ± 0.0021
4 | GGAGACCUAUCUAUACAUCCUACUUCCUCA | 0.00289 ± 0.0043
5 | GGAGAGGAUACUGUACAACCUACUACCUCA | 0.0789 ± 0.029
6 | GGAGACCUUACAUACAACCUACUACCUCA | 0.00863 ± 0.0045
7 | GGAGACCUUACUAUACAACCUACUAACCUCA | 0.00393 ± 0.0038
8 | GGAGAGGAUACUAUAGAACCUACUUCCUCA | 0.00187 ± 0.0023
9 | GGAGACCUUACUAUGACAACCUACUACCUCA | 0.00456 ± 0.0042
10 | GGAGACCAUACUAUACAACCUACAAGCUCA | 0.00268 ± 0.0039
11 | GGAGACCUAACUAUACUACCUUCUACCUCA | 0.000838 ± 0.0084
12 | GGAGUGGAUACAAAACAACCUACUACCUCA | 0.00279 ± 0.0043
13 | GGAGACCUAUGUAUACAUCCUAGUACCUCA | 0.00209 ± 0.0043
14 | GGAGACCUAUCUAUACAACCUACUAGCUCA | 0.00116 ± 0.0027
15 | GGAGAGGAUAGUAUACAACCUUCUACCUCA | 0.00304 ± 0.0024
16 | GGAGAGGAUACUAUACAACCUACUACGAGA | 0.00374 ± 0.0018
17 | GGAGACCUAUGUAUACAACCUACAACGUCA | 0.000497 ± 0.01
18 | GGAGACCAUACUAUUCAACCUACUUCCUCA | 0.00483 ± 0.0048
19 | GGAGACGUUACUAAACAACCUACUACCUCA | 0.00366 ± 0.0038
20 | GGAGACGAUACAAUAGAACCUACUACCUCA | 0.00234 ± 0.0032

Look-ups from above:
For pre-steady-state target cleavage rate, GGAGACCAUACUAUACAACCUACAAGCUCA is entered as 0.00268 ± 0.0039
For pre-steady-state target cleavage rate, GGAGACCUAUGUAUACAUCCUAGUACCUCA is entered as 0.00209 ± 0.0043

Continued:

Row | Sequence | pre-steady-state target cleavage rate
21 | GGAGAGGAUACUUUACAAGCUACUACCUCA | 0.00384 ± 0.0021
22 | GGAGUGGAUACUAUUCUACCUACUACCUCA | 0.00571 ± 0.0035
23 | GGAGACCUAACAAUACAUCCUACUACCUCA | 0.00431 ± 0.0035
24 | GGAGACCUAUCUAUACUACCUACUACGUCA | 0.000652 ± 0.0048
25 | GGAGACGUUAGUAUACAACCUACUACCUCA | 0.00686 ± 0.0036
26 | GGAGACCUAACUAUACAUCGUACUACCUCA | 0.00261 ± 0.0048
27 | GGAGACCAUACUAUACAACCUACUACCACA | 0.00574 ± 0.002
28 | GGAGUGGAUACUUUACAACCAACUACCUCA | 0.00219 ± 0.0023
29 | GGAGACCUAAGUAUACAACCUUCUACCUCA | 0.00148 ± 0.0038
30 | GGAGACCUAUGAUAACAACCUACCACCUCA | 0.000204 ± 0.015
31 | GGAGUGGAUACUAUACAACCUACUACCCUCA | 0.00587 ± 0.002
32 | GGAGACCUAACUAUACAACCUACUCACCUCA | 0.00244 ± 0.0048
33 | GGAGACCUAUGAUAUGAACCUGCUACCUCA | 0.000205 ± 0.02
34 | GGAGACGAUACUAUACAACGUACUACCUCA | 0.00525 ± 0.0016
35 | GGAGUGGAAUCUAUACAACCUACUACCUCA | 0.00913 ± 0.0055
36 | GGAGACCUAUGAUAUGUUCUCUACUACCUCA | 0.000258 ± 0.0095
37 | GGAGACGAUACUAUACAACUACUACCUCA | 0.00742 ± 0.0033
38 | GGAGACCUAAGAAUACAACCUACUACCUCA | 0.00727 ± 0.0035
39 | GGAGACCUAUCUAACAACCUACUACCUCA | 0.00237 ± 0.0045
40 | GGAGACCAUACUAUACAACCUACAACCACA | 0.00362 ± 0.0052
